PubChem BioAssay AID504784 – Drosophila RNAi Screening Center – 2011
Aim: 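Search for regulators of lipid droplet storage in oleate-fed fly cells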 (primary screen). Cell system: Drosophila Kc167 embryonic cells. Reagents: long dsRNA against Drosophila genes, about 250 ng dsRNA per well. Timing: 4 days. Challenge: cells fed 400 µM oleic acid bound to BSA. Measurement: 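Cells imaged and segmented; ratio of lipid droplet area to nuclear area, log-transformed, then normalised as a B-score over the screen; higher means more stored lipid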. Direction: droplet/nuclear area B-score: higher = more stored lipid (overstorage).
The deposit covers about 17,000 reagents; below is a random part of those that have a named target and a result. 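Each column is one replicate's B-score; the combined score over replicates was not deposited, so single values may mislead.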 Further read-outs or replicates are left out here. No sequences are given here.

Mipp1 [DRSC11223] | droplet/nuclear area B-score, replicate 1: -1.66
BNIP3 [DRSC11761] | droplet/nuclear area B-score, replicate 1: 0.393
Pdk [DRSC07504] | droplet/nuclear area B-score, replicate 1: -0.198
TTLL3B [DRSC02133] | droplet/nuclear area B-score, replicate 1: 0.379
beat-Ib [DRSC03490] | droplet/nuclear area B-score, replicate 1: -0.439
CG6142 [DRSC15976] | droplet/nuclear area B-score, replicate 1: -0.853
janB [DRSC16973] | droplet/nuclear area B-score, replicate 1: 0.0495
CG42404 [DRSC15558] | droplet/nuclear area B-score, replicate 1: 2.63
Cyp6t3 [DRSC07388] | droplet/nuclear area B-score, replicate 1: 0.0106
CG6654 [DRSC16084] | droplet/nuclear area B-score, replicate 1: -1.87
CG2061 [DRSC19348] | droplet/nuclear area B-score, replicate 1: -0.999
CG10341 [DRSC02040] | droplet/nuclear area B-score, replicate 1: -0.382
Arpc2 [DRSC02113] | droplet/nuclear area B-score, replicate 1: 0.268
CG13950 [DRSC00368] | droplet/nuclear area B-score, replicate 1: 0.591
alpha-Est10 [DRSC12613] | droplet/nuclear area B-score, replicate 1: 0.000326
CG7745 [DRSC07037] | droplet/nuclear area B-score, replicate 1: 0.164
CG7745 [DRSC23103] | droplet/nuclear area B-score, replicate 1: -2.54
CG17754 [DRSC18131] | droplet/nuclear area B-score, replicate 1: 2.6
boca [DRSC06408] | droplet/nuclear area B-score, replicate 1: -2.38
CG30094 [DRSC22268] | droplet/nuclear area B-score, replicate 1: -0.173
CG12093 [DRSC08252] | droplet/nuclear area B-score, replicate 1: -0.132
mtTFB2 [DRSC15519] | droplet/nuclear area B-score, replicate 1: 1.5
Peritrophin-15b [DRSC02266] | droplet/nuclear area B-score, replicate 1: -0.896
CG32249 [DRSC08101] | droplet/nuclear area B-score, replicate 1: -0.982
CG32249 [DRSC08177] | droplet/nuclear area B-score, replicate 1: 0.935
CG32249 [DRSC22444] | droplet/nuclear area B-score, replicate 1: 0.394
Khc-73 [DRSC07449] | droplet/nuclear area B-score, replicate 1: -0.176
dsf [DRSC03524] | droplet/nuclear area B-score, replicate 1: -1.56
CG14687 [DRSC14910] | droplet/nuclear area B-score, replicate 1: -0.373
Or85f [DRSC16769] | droplet/nuclear area B-score, replicate 1: 0.65
CG15475 [DRSC02486] | droplet/nuclear area B-score, replicate 1: 0.38
jb [DRSC20531] | droplet/nuclear area B-score, replicate 1: -0.934
Echs1 [DRSC06999] | droplet/nuclear area B-score, replicate 1: -0.591
Prx4 [DRSC08668] | droplet/nuclear area B-score, replicate 1: 1.74
CG10435 [DRSC14246] | droplet/nuclear area B-score, replicate 1: -1.66
CG1791 [DRSC18141] | droplet/nuclear area B-score, replicate 1: 0.455
MFS3 [DRSC00664] | droplet/nuclear area B-score, replicate 1: 0.776
CG10116 [DRSC09700] | droplet/nuclear area B-score, replicate 1: 0.554
CG14673 (retired record) [DRSC12259] | droplet/nuclear area B-score, replicate 1: 1.61
CG2701 [DRSC18590] | droplet/nuclear area B-score, replicate 1: 0.34

A stretch from the list above:
Peritrophin-15b [DRSC02266] | droplet/nuclear area B-score, replicate 1: -0.896
CG32249 [DRSC08101] | droplet/nuclear area B-score, replicate 1: -0.982
CG32249 [DRSC08177] | droplet/nuclear area B-score, replicate 1: 0.935
CG32249 [DRSC22444] | droplet/nuclear area B-score, replicate 1: 0.394
Khc-73 [DRSC07449] | droplet/nuclear area B-score, replicate 1: -0.176
